Test results reported in PubChem BioAssay AID1439 (NMMLSC, 2008).
In all, about 220,000 compounds went through this assay and about 770 (0.35%) were called active. This list was built around the results that the source calls inconclusive (neither active nor inactive); the mix of calls is not that of the screen. No stated cut-off is given here; in the data, active means binding response below about 49% or above about 150%; inconclusive means no clear call, values can overlap the other calls; inactive means in between.

Sequences of proteins named here, by UniProt entry; tags and fusion partners are left off.
UniProt P09471, whole entry, looked up: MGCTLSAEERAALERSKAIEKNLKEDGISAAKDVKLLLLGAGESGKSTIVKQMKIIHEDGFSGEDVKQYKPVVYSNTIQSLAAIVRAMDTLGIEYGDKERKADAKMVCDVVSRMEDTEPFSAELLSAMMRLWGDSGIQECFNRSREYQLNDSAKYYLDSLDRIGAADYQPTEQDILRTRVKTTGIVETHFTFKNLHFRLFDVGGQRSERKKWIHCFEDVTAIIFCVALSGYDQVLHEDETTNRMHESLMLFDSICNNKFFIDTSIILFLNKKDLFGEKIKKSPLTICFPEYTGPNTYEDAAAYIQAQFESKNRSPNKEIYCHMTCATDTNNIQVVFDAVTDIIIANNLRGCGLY

biological target: Guanine nucleotide-binding protein G(o) subunit alpha (Homo sapiens) (UniProt P09471); test: RGS7-Galphao binding modulators, primary screen, biochemical, multiplexed bead flow cytometry (AID 1439); conditions: at 10 µM, actives lie on both sides;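 further: fluorescent Galphao held in activated GDP-AlF4 state binding bead-coupled RGS7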

Compound | binding response (% of control)
CC(C)(C)C1=NN=C2c3ccccc3C(=O)C21 (stereo unspecified) | inconclusive: 12.3%
Cc1cccc(NC(=O)Nc2ccc([N+](=O)[O-])cc2)n1 | inconclusive: 112%
CCOC(=O)C1=C(N)OC2=C(C(=O)CCC2)C1c1ccccc1OCC (stereo unspecified) | active: 296% [activator]
O=c1c2ccccc2c(/C=N/NS(=O)(=O)c2ccccc2)c(O)n1-c1ccccn1 | inactive: 96.1%
COCCCN=Cc1c(-c2ccccc2)[nH]n(-c2nc3ccccc3s2)c1=O | inconclusive: 62.3%
O=C(CCC(=O)N(CC(=O)NC1CCCC1)Cc1cccs1)Nc1nccs1 | inactive: 106%
CCN(CC)c1ccc(/C=N/NC(=O)c2ccco2)c(O)c1 | inconclusive: 54.8%
O=C(Cc1ccc(Cl)c(Cl)c1)Nc1ccc2[nH]c(=O)[nH]c2c1 | inconclusive: 107%
Cc1noc(C(=O)NC2CCCCC2)c1Cl | inconclusive: 93.8%
CC(C)(CN1CCc2ccccc2C1)NS(=O)(=O)c1ccc(Cl)cc1 | inconclusive: 618%
Cc1cc(C)cc(N(CC(=O)NC2CCCCCC2)S(=O)(=O)c2c(C)[nH]c(=O)[nH]c2=O)c1 | inconclusive: 76.2%
CC(=O)Nc1ccc(S(=O)(=O)N(CC(=O)Nc2cc(C)on2)Cc2ccc(F)cc2)cc1 | inconclusive: 136%
CCOC(=O)C1=C(Nc2ccc(OC)cc2)OCC1=O | inconclusive: 69.8%
COc1ccc(CNC(=S)N/N=C(/C)c2ccccc2)cc1 | inconclusive: 106%
Cc1ccc2nc3c(nc2c1C)C(O)=C3O | inconclusive: 108%
CCN(CC)c1ccc(C(=O)OCC(=O)N(C(C)C)C(C)C)cc1 | inconclusive: 126%
N=C1c2ccccc2CN1c1ccc(N2CCOCC2)c(S(=O)(=O)Nc2ccc(Cl)cc2)c1 | inconclusive: 58.5%
C=CCNC(=O)NC(=O)COC(=O)c1nc2nccc(C)n2n1 | inactive: 103%
COc1ccc([C@H]2C=C(C(=O)O)O[C@@H](OCCCCO)C2)cc1 | inconclusive: 96.9%
Nn1c(SCc2ccc(Br)cc2)nnc1-c1ccccn1 | inconclusive: 84.4%
CC1=CC2=NC(=O)/C(=C/c3cccn3Cc3ccccc3)C(=N)N2O1 | inconclusive: 77%
O=C1C2C(c3ccccc3)CC=CC2[C@H](c2ccc(C(F)(F)F)cc2)N1Cc1ccccc1 (stereo partly specified) | inconclusive: 104%
CN(C)CC(C)(C)CN=Cc1c(O)[nH]c2ccccc12 | inconclusive: 106%

Compound | binding response (% of control)
COc1ccccc1CC(=O)Nc1cccc(C(=O)Nc2nccs2)c1 | inconclusive: 163%
FC(F)Oc1ccc(NC(=S)NCc2ccco2)cc1Cl | inconclusive: 75.4%
O=C(O)c1ccc2c(=O)[nH]c(CCl)nc2c1 | inconclusive: 106%
Cc1ccccc1-c1cc(=O)c2c(O)cccc2o1 | inconclusive: 94.7%
CCC(=O)NNC(=O)CCC(=O)Nc1cccc(Cl)c1C | inconclusive: 76.7%
CCOc1ccc(-c2csc(Cn3c(CN4CCN(C)CC4)nc4ccccc4c3=O)n2)cc1 | inactive: 111%
CC(C)(C)CC(C)(C)NC(=O)/C=C/C(=O)O | inconclusive: 250%
COc1ccc(CCc2cc(OC)cc(=O)o2)cc1 | inconclusive: 84.8%
COCCn1c(C)cc(/C=C2/NC(=O)N(c3cccc(Cl)c3)C2=O)c1C | inconclusive: 74.3%
O=C(O)c1cccc(N/N=C/c2cc(Br)cc(Br)c2O)c1 | inactive: 101%
N/C(=N\OC(=O)/C=C/c1ccccc1Cl)c1cccnc1 | inconclusive: 112%
C=CCN1C(=O)/C(=c2\sc3nc(=O)c(Cc4ccc(OC)c(OC)c4)nn3c2=O)c2ccccc21 | inconclusive: 15.9%
Cc1ccc(Nc2c(-c3ccc(N4CCOCC4)cc3)nc3cnccn23)cc1 | inconclusive: 85.2%
COc1ccc(/C=C/CN2CCCC(CO)(Cc3cccc(Cl)c3)C2)cc1 (stereo unspecified) | inactive: 97.5%
Cc1csc(SCC(=O)N(C)CC(=O)Nc2ccc(F)cc2)n1 | inconclusive: 107%
O=C(COC(=O)Cn1cnc2ccccc21)NCc1ccc(F)cc1 | inconclusive: 108%
O=C(Cc1ccccc1F)Nc1nc(-c2cccnc2)cs1 | inconclusive: 67.1%
Fc1cccc(Cl)c1CSc1nnc2ccccn12 | inconclusive: 108%
O=c1c2nncn2c2cccnc2n1CCNc1ncc(C(F)(F)F)cc1Cl | inconclusive: 102%
Cc1ccc(Sc2ncccc2NC(=O)c2ccccc2Cl)cc1 | inconclusive: 108%
Cc1c(CNC(=O)C2CC2)c(-n2cccc2)n(Cc2ccccc2)c1C | inconclusive: 125%
COCc1[nH][nH]c(=O)c1C=Nc1ccc(C(F)(F)F)cc1 | inconclusive: 101%
CC1C2NC(=O)N(Cc3ccccc3)C1(C)Oc1ccccc12 (stereo unspecified) | inactive: 102%

At a glance, 23 of the compounds above:
Compound | binding response (% of control)
O=C1C2C(c3ccccc3)CC=CC2[C@H](c2ccc(C(F)(F)F)cc2)N1Cc1ccccc1 (stereo partly specified) | inconclusive: 104%
CN(C)CC(C)(C)CN=Cc1c(O)[nH]c2ccccc12 | inconclusive: 106%
COc1ccccc1CC(=O)Nc1cccc(C(=O)Nc2nccs2)c1 | inconclusive: 163%
FC(F)Oc1ccc(NC(=S)NCc2ccco2)cc1Cl | inconclusive: 75.4%
O=C(O)c1ccc2c(=O)[nH]c(CCl)nc2c1 | inconclusive: 106%
Cc1ccccc1-c1cc(=O)c2c(O)cccc2o1 | inconclusive: 94.7%
CCC(=O)NNC(=O)CCC(=O)Nc1cccc(Cl)c1C | inconclusive: 76.7%
CCOc1ccc(-c2csc(Cn3c(CN4CCN(C)CC4)nc4ccccc4c3=O)n2)cc1 | inactive: 111%
CC(C)(C)CC(C)(C)NC(=O)/C=C/C(=O)O | inconclusive: 250%
COc1ccc(CCc2cc(OC)cc(=O)o2)cc1 | inconclusive: 84.8%
COCCn1c(C)cc(/C=C2/NC(=O)N(c3cccc(Cl)c3)C2=O)c1C | inconclusive: 74.3%
O=C(O)c1cccc(N/N=C/c2cc(Br)cc(Br)c2O)c1 | inactive: 101%
N/C(=N\OC(=O)/C=C/c1ccccc1Cl)c1cccnc1 | inconclusive: 112%
C=CCN1C(=O)/C(=c2\sc3nc(=O)c(Cc4ccc(OC)c(OC)c4)nn3c2=O)c2ccccc21 | inconclusive: 15.9%
Cc1ccc(Nc2c(-c3ccc(N4CCOCC4)cc3)nc3cnccn23)cc1 | inconclusive: 85.2%
COc1ccc(/C=C/CN2CCCC(CO)(Cc3cccc(Cl)c3)C2)cc1 (stereo unspecified) | inactive: 97.5%
Cc1csc(SCC(=O)N(C)CC(=O)Nc2ccc(F)cc2)n1 | inconclusive: 107%
O=C(COC(=O)Cn1cnc2ccccc21)NCc1ccc(F)cc1 | inconclusive: 108%
O=C(Cc1ccccc1F)Nc1nc(-c2cccnc2)cs1 | inconclusive: 67.1%
Fc1cccc(Cl)c1CSc1nnc2ccccn12 | inconclusive: 108%
O=c1c2nncn2c2cccnc2n1CCNc1ncc(C(F)(F)F)cc1Cl | inconclusive: 102%
Cc1ccc(Sc2ncccc2NC(=O)c2ccccc2Cl)cc1 | inconclusive: 108%
Cc1c(CNC(=O)C2CC2)c(-n2cccc2)n(Cc2ccccc2)c1C | inconclusive: 125%

Continued:

Compound | binding response (% of control)
O=C(CCCNS(=O)(=O)c1ccc(Cl)c(Cl)c1)NCCc1ccccn1 | active: 157% [activator]
CCOC(=O)c1c(CSc2ccccc2)oc2cc(Br)c(O)c(CN(C)C)c12 | inconclusive: 95.7%
Cn1nc(C(F)(F)F)cc1C(=O)O | inconclusive: 101%
Clc1ccc(-c2csc(Nc3ccccc3)[n+]2Cc2ccco2)c(Cl)c1 | inconclusive: 109%
CC(C)(C)NC(=O)CSc1nc(N)c(-c2ccccc2)c(=O)[nH]1 | inactive: 99.1%
O=C(Nc1cccc2ncccc12)c1ccc(Br)c([N+](=O)[O-])c1 | inactive: 121%
COC(=O)CCCC1=CC2=CC(=O)C(C)(OC(=O)c3cccs3)C(=O)C2=CN1c1cccc(C#N)c1 (stereo unspecified) | inconclusive: 100%
Cc1cc(NC(=O)c2ccc([N+](=O)[O-])cc2)n(C)n1 | inconclusive: 57.7%
Cc1cccc(N2C(=O)CC(Cn3nc(C)cc3C)C2=O)c1 (stereo unspecified) | inconclusive: 82.2%
COc1cc(/C=N/NC(=O)c2ccc(Cl)c(S(N)(=O)=O)c2)ccc1OCC(N)=O | inconclusive: 119%
CC(C)NC(=O)CNc1ccc(C(F)(F)F)cc1[N+](=O)[O-] | inconclusive: 91%
Cc1ccc(N2C(=O)CC(Sc3ccccc3C(=O)O)C2=O)cc1C (stereo unspecified) | inconclusive: 100%
O=C(Nc1ccc(Cl)c(C(F)(F)F)c1)N1CCCC(O)C1 (stereo unspecified) | inactive: 112%
CCCC1=C(C(=O)OCC)C(c2cccnc2)n2nc(C)nc2N1 (stereo unspecified) | inconclusive: 108%
CC(C)On1c(SCC(=O)N(C)C)nc2ccccc2c1=O | inconclusive: 96.4%
COc1ccc(-c2cc3ccccc3n2CC(O)CN2CCCCC2)cc1 (stereo unspecified) | inconclusive: 129%
CCCCNC(=O)COC(=O)c1cc(C)oc1C | inactive: 103%
CCn1cc(C(=O)O)c(=O)c2cc(F)c(N3CCN(C(=S)NC(=O)c4ccc(F)cc4)CC3)cc21 | inconclusive: 18.9%
CCOC(=O)Nc1ccc2c(c1)nc(CN1CCCCC1)n2C | inconclusive: 116%
COc1ccc(NC(=O)c2nc[nH]c2C(=O)NCC(=O)OC(C)(C)C)cc1 | inconclusive: 132%
COc1ccc(NC(=O)c2cccc(OC(=S)N3CCOCC3)c2)cc1 | inconclusive: 82.6%
CCOC(=O)c1c(C)[nH]c(C(=O)OCC(=O)c2c(N)n(C)c(=O)n(C)c2=O)c1C | inactive: 100%
O=c1c2c([nH]c3ccccc13)CCCCC2 | inconclusive: 79%

Compound | binding response (% of control)
Oc1ccc(C(=S)N2CCN(c3cccc(Cl)c3)CC2)cc1 | inconclusive: 87.9%
CCC(C)[C@H]1CN=C(N)N1CCCc1cc(OC)c(OC)c(OC)c1 (stereo partly specified) | inconclusive: 123%
CCN1CCN(c2nc3ccccn3c(=O)c2/C=C(\C#N)S(=O)(=O)c2ccccc2)CC1 | inconclusive: 85.4%
O=C(CCNC(=O)c1ccccc1)N=Nc1c(O)[nH]c2ccccc12 | inconclusive: 106%
COc1ccccc1OCCCCOc1ccccc1C(C)=O | active: 7.37%
O=C1CCC(C(=O)NCCN2C(=O)S/C(=C\c3cccnc3)C2=O)=NN1 | inconclusive: 76.2%
O=C(Cc1ccccc1)Nc1ccccc1C(=O)O | inactive: 90.5%
Cc1ccccc1N1C(S)=C(C#N)C(=O)NC12CCCCC2 | inactive: 102%
COc1ccc(NS(=O)(=O)c2cc(NC(=O)C3CC3)ccc2N2CCCCC2)cc1 | inconclusive: 99.7%
C/C(=N\NC(=O)c1ccc2c(c1)OCCO2)c1ccccc1 | inconclusive: -173%
Nc1nccc(/C=C/c2ccc(Cl)cc2)n1 | inconclusive: 186%
Cc1cc(C)n(CC(O)CN(c2ccccc2)S(=O)(=O)c2ccc3ccccc3c2)n1 (stereo unspecified) | active: 1.45%
Cc1ccc(-n2c(CCc3nc4ccccc4[nH]3)n[nH]c2=S)cc1 | inactive: 103%
O=C(NNC(=O)c1ccc[nH]1)Nc1cccc(C(F)(F)F)c1 | inconclusive: 168%
CCOC(=O)C1(Cc2ccccc2C(F)(F)F)CCN(C2CCN(C(C)C)CC2)CC1 | inactive: 91%
Cc1cccc(NC(=O)C2COc3ccccc3O2)n1 (stereo unspecified) | inconclusive: 93.7%
O=C(CSc1nc(O)c(Cc2ccccc2)c(=O)[nH]1)c1ccccc1 | inconclusive: 52.6%
CCOC(=O)c1cc(-c2ccc(F)cc2)n(CC(=O)NC(C)CC)c1C (stereo unspecified) | inactive: 113%
Cn1c(C(=O)O)ccc1S(=O)(=O)N(Cc1ccccc1)Cc1ccccc1 | inconclusive: 78.7%
CN(C)c1ccnc(Oc2ccc(C(C)(C)C)cc2)c1C#N | inactive: 92.2%
Cc1c(Br)c([N+](=O)[O-])nn1CC(=O)c1ccccc1 | inactive: 104%
Cn1nccc1NC(=O)Nc1cccc([N+](=O)[O-])c1 | inconclusive: 159%
